Test results taken from publication PMC8502973 (Frontiers in Physiology, 2021).

Test: Long-term: hormone and metabolic blood parameters
Assay type: in vivo, male DIO Sprague Dawley rats
Text: Male DIO Sprague Dawley rats (n = 24) were generated as outlined above and were 644.5 g (50 g) at the start of drug treatment. The animals were divided into three treatment groups (n = 8 each) balanced for body weight, body weight gain during baseline, food intake, and Lee Index [body weight^(1/3)/snout to anus length (mm)] ([Lee, 1929]; [Simson and Gold, 1982]) as an indicator of adiposity (Figure 2). In a subset of the animals (n = 5 per group, balanced for prior mentioned criteria), Mini-Mitter transponders (PDT-4000 E-Mitter, Respironics Inc.) were implanted posterior to the left scapula at least 9 days prior to start of baseline measures to ensure sufficient recovery time. Body temperature and gross motor activity were continuously recorded via these transponders. […] High fat diet and water were provided ad libitum and intake was recorded with daily hopper and water bottle weighs at time of body weight assessment just prior to drug administration. Blood samples were taken at start of intervention by tail vein bleeding and via cardiac puncture under an isoflurane induced surgical plane of anesthesia at euthanasia. Animals were euthanized on treatment day 29, 4 h after receiving a dose of their assigned treatment, via decapitation under isoflurane anesthesia immediately following blood draw. Body composition was assessed on carcasses.
Commercially available enzyme-linked immunosorbent assays (ELISA) were used for quantitative assessment of leptin (MilliporeSigma, Burlington, MA) and insulin (MilliporeSigma, Burlington, MA); all with intra-assay CV < 4%. Levels of sodium, potassium, glucose, cholesterol (total and HDL), triglycerides, alanine transaminase (ALT), and aspartate transaminase (AST) were determined in serum obtained at sacrifice by cardiac puncture on a Modular P chemistry analyzer (Roche Diagnostics, Germany) at the University of Washington NORC Core, Seattle, WA.

oxytocin [OXT]
plasma leptin change pre- vs. post-treatment (OXT, ELISA, 95% CI −10.6 to −4.49, p < 0.0001): -7.53 ng/mL
serum triglycerides, difference vs vehicle (OXT, post-treatment, 95% CI −18.2 to −101.5, p = 0.004): -59.9 mg/dL
Insulin, post-treatment (after 28-day Tx, plasma, ELISA, n = 8, Mean ± SD, ANOVA p 0.231): 4.42.8 μg/L
Leptin, post-treatment (after 28-day Tx, plasma, ELISA, n = 8, Mean ± SD, ANOVA p 0.353): 24.410.4 μg/L
Glucose, post-treatment (after 28-day Tx, serum, n = 8, Mean ± SD, ANOVA p 0.231): 10.11.2 mmol/L
HDL, post-treatment (after 28-day Tx, serum, n = 8, Mean ± SD, ANOVA p 0.492): 0.70.1 mg/dL
Cholest, post-treatment (after 28-day Tx, serum, n = 8, Mean ± SD, ANOVA p 0.535): 2.20.2 mmol/L
